Protein sequences, listed by entry. Tags and fused reporters are not part of them. Lines headed by an entry give the natural chain unless they say otherwise; changes in a name come on top. Chains listed by the source or under a name are the forms on record and can include a tag or linker.
tagless human TIM-3 IgV domain (Q8TDQ0, form named): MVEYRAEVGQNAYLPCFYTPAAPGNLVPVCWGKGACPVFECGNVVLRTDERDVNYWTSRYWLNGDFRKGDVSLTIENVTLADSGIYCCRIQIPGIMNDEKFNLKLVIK
UniProt P13688: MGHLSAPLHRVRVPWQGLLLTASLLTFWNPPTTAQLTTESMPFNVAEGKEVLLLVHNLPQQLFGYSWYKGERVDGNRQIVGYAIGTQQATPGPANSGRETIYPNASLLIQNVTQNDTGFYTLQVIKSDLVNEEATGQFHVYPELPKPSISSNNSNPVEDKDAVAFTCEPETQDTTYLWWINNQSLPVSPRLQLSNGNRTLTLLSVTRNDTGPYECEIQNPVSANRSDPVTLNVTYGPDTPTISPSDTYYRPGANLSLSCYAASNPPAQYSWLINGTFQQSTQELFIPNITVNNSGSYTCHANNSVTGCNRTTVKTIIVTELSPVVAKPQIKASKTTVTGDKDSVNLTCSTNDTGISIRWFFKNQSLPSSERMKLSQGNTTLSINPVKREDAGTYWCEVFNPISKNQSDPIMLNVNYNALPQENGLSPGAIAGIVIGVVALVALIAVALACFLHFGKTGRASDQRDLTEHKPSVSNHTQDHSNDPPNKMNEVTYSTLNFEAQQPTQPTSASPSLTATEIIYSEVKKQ

In publication PMC6269442, “High resolution X-ray and NMR structural study of human T-cell immunoglobulin and mucin domain containing protein-3” (Scientific Reports, 2018):

Tests used:
[1] = target: tagless human TIM-3 IgV domain (human) (UniProt Q8TDQ0); assay: ELISA; antibody blockade: plate-bound tagless hTIM-3 IgV; 4 μM GST-tagged hCEACAM1 IgV with anti-CEACAM1 monoclonal 5F4 (0–1 μM) or mouse IgG1 isotype control; both purified
[2] = target: tagless human CEACAM1 IgV domain (human) (UniProt P13688); assay: ELISA; peptide blocking: plate-bound tagless hCEACAM1; hTIM-3 Fc fusion protein (4 μM) incubated with 10 μM hTIM-3 C-C′ loop-derived peptide or 10 μM scrambled control peptide; both purified

Molecule | binding [1] | binding [2]
glutathione-S-transferase (GST) tagged hCEACAM1 IgV-domain protein (from UniProt P13688) (domain or fragment) | binds | –
CPVFECGNVVLRTDERDVNY [hTIM-3 C-C′ loop-derived peptide (amino acids 58–77)] | – | binds

Results are given in words; binding and its absence hold for the method and conditions named. Binding can be weak; no strength is given.
